Test results: article PMC6858779
These are yes or no findings as the source states them, for the method shown. In cells and extracts the contact can be indirect. Some results given as binding are weak or reduced against the parent protein; the word gives no strength.

Biological target: T1, chemerin (mouse (endogenous in fetal mouse brain)) (UniProt Q9DD06)
T1 sequence: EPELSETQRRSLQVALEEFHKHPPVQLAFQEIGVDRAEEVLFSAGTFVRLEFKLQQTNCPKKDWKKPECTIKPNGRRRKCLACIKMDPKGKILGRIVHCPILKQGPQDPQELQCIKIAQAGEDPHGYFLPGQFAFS
Assay: co-IP; RIPA lysate of whole brain tissue of E18.5 fetal mice (two fetal brains) from control and chemerin-induced diabetic dams; incubated with Protein A/G-Sepharose and anti-chemerin overnight, three washes in PBS, precipitate analysed by western blotting

B1: chemokine (C-C motif) receptor-like 2 (CCRL2) (receptor, UniProt O35457 1-360)
chain: MDNYTVAPDDEYDVLILDDYLDNSGPDQVPAPEFLSPQQVLQFCCAVFAVGLLDNVLAVFILVKYKGLKNLGNIYFLNLALSNLCFLLPLPFWAHTAAHGESPGNGTCKVLVGLHSSGLYSEVFSNILLLVQGYRVFSQGRLASIFTTVSCGIVACILAWAMATALSLPESVFYEPRMERQKHKCAFGKPHFLPIEAPLWKYVLTSKMIILVLAFPLLVFIICCRQLRRRQSFRERQYDLHKPALVITGVFLLMWAPYNTVLFLSAFQEHLSLQDEKSSYHLDASVQVTQLVATTHCCVNPLLYLLLDRKAFMRYLRSLFPRCNDIPYQSSGGYQQAPPREGHGRPIELYSNLHQRQDII
With B1 the binding was “binds”.
